Counter-ions that a name gives are not always drawn. The list shows a part of the results. Many values rest on one well or one pass, so single values are uncertain.
System: Trypanosoma brucei brucei bloodstream form L262P (kDNA-independent)
Test: viability Z-score (nuclei count per well, median-polish normalised, relative to plate distribution); higher = more viable parasites (negative = growth inhibition)
Settings: 4 days; compound concentration: 10 µM (some Prestwick/PKE rows may be 1 µM / not distinguished)

| SMILES | viability Z-score |
| --- | --- |
| [O-][N+](=O)C5=C/C=C(/NC(=O)NC=2C=C1N=C(C(=NC1=CC=2)C3=CC=CC=C3)C=4C=CC=CC=4)C=C5 | -1.96 |
| O=[S](=O)(N1CCCCC1)C4=C/C=C(/NC(=O)C=3C=CC(CN(C=2/C=C(/C)C(C)=CC=2)[S](=O)(=O)C)=CC=3)C=C4 | -2.13 |
| O=C(Nc1ccc([N+](=O)[O-])cc1Cl)c1cc(Cl)ccc1O [Niclosamide] | -1.86 |
| O=C(N[C@@]([H])(C/C1=C/NC=2C=CC=CC1=2)C(=O)OC)C=3[S]C=CC=3 | -3.51 |
| Cc1ccc(NC(=O)CCC(=O)N/N=C/c2coc3ccc(Br)cc3c2=O)cc1 | -6.48 |
| CCOC(=O)CN1N=C(c2ccc(Cl)s2)CSC1=O | -1.47 |
| O=C(NC=1C=CC=NC=1[S]/C2=C/C=C(/C)C=C2)C=3C=C(C=C(C=3)C([F])([F])[F])C([F])([F])[F] | -2.48 |
| CC1(C)[C@H]2CC[C@]1(C)/C(=N/N=C1NC(=O)/C(=C\c3cccc(Br)c3)S1)C2 | -5.96 |
| O=[S](=O)(C1=C(C=NC=2C=CC([F])=CC1=2)C(=O)C3=CC=CC=C3)C4=C/C=C(/C)C=C4 | -2.96 |
| CO/C5=C/C=C(/CN1CCN(CC1)[C@]2([H])[C@@]3([H])C[C@@]4([H])C[C@]2([H])C[C@@]([H])(C3)C4)C=C5 | -2.48 |
| CC(CC1(CC(C)C)CCCCC1)=NNC(N)=O | -3.09 |
| CCCc1cnc(N2CCN(S(=O)(=O)c3cccs3)CC2)nc1 | -5.13 |
| N#C/C2=C(\N)OC=1NN=C(C=1[C@@]2([H])C=3OC(=CC=3)[N+]([O-])=O)C4=CN=CC=C4 | -1.54 |
| N#CCC(=O)NNC(=O)C2=CC=1C=C/C=C(/CC=C)C=1OC2=O | -3.89 |
| Nc1nc(CN2CCN(Cc3ccccc3)CC2)nc(N2CCCc3ccccc32)n1 | -4.78 |
| O=C(O)C[S]/C1=C(/NC=2C=CC=CC1=2)C3=CC=CC=C3 | -2.69 |
| O[C@]1(CCN(CCC1)C=2N=C(C(=CN=2)C=3O/N=C(/C)C=3)C=4OC=CC=4)C5=NC=CN5C | -3.75 |
| Cc1cccc(-c2nc3c(cnn3-c3ccccc3)c(=O)[nH]2)c1 | -2.16 |
| [F]C([F])([F])C2=C/C(=C(/O/C1=C/C(C)=C([Cl])C(C)=C1)C=C2)N3C=CC=C3 | -2.33 |
| N=C(NC(=O)C=1C=CC=CC=1)NCC/C2=C/NC=3C=CC=CC2=3 | -4.62 |

| SMILES | viability Z-score |
| --- | --- |
| C/C(=N/O)c1ccc2ccccc2c1 | -5.55 |
| COc1ccc(S(=O)(=O)N(CC(=O)NO)CC(C)C)cc1 | -5.47 |
| CC(CN(C)C)C(C)(O)Cc1ccc(Cl)cc1 (stereo not given) [Clobutinol hydrochloride] | -3.19 |
| CC1=C2C(=O)c3ccccc3O[C@]23CC[C@H]1[C@H]1C(=O)N(C)C(=O)[C@H]13 | -4.62 |
| [F]C([F])([F])C4=C/C=C(/CN3CCN(CC=2C=C1OCOC1=CC=2)CC3)C=C4 | -2.6 |
| [Cl]C=1/C=C(/[Cl])C=CC=1C=4/N=C(/C2=C(\C)NC=3C=CC=CC2=3)C(=NN=4)C5=CC=CC=C5 | -2.63 |
| COCCCC/C(=N\OCCN)c1ccc(C(F)(F)F)cc1 [Fluvoxamine maleate] | -3.81 |
| N#CC(NC/C1=C(\[Cl])C=C/C=C1/[F])=C(C#N)NCC=2[S]C=CC=2 | -1.65 |
| C#CCOC(=O)C=1OC(=CC=1)C[S]/C2=C/C=C(/[Cl])C=C2 | -3.12 |
| O=[N+]([O-])c1cc2c(c(COc3ccc(Cl)cc3Cl)c1)OCOC2 | -4.47 |
| O=C(C=3C=C2N1C=NN=C1C(=NC2=CC=3)NC=4/C=C(/OC)C(=CC=4)OC)C5=CC=CC=C5 | -7.17 |
| Cc1nnc(NC(=O)COn2nnc3ccc([N+](=O)[O-])cc32)s1 | -6.15 |
| O=C(NC=1C=CC([Cl])=CC=1C(=O)NC/C2=C/C(OC)=CC=C2)C=3[S]CCOC=3C | -3.66 |
| COc1ccc(C[C@H](C)NC[C@@H](O)c2ccc(O)c(NC=O)c2)cc1.COc1ccc(C[C@H](C)NC[C@@H](O)c2ccc(O)c(NC=O)c2)cc1 [Formoterol fumarate] | -4.6 |
| CCOC(=O)NC(=S)NC(=O)C(C)(C)C | -6.42 |
| O=C(NC/C2=N/C=1C=CC=CC=1N2C)C(C)(C)C | -4.69 |
| [S]=C(NC(=O)C=1C=CC=CC=1[I])N/C2=N/C=C/C=C2/O | -4.41 |
| COC(=O)C[C@H](NC(=O)[C@H](C)NC(=O)[C@@H](NC(=O)OCc1ccccc1)C(C)C)C(=O)CF | -4.14 |
| O=[P](/C1=C/C=CC=C1)(C2=CC=CC=C2)[C@]([H])(N=CC=3[S]C=CC=3)C=4C=CC=CC=4 | -2.13 |
| O=C(N/C1=N/N=C(C[S]1)C2=C/C=C(/C)C=C2)C[S]C=3/N=C(/C)C=C(C)N=3 | -3.12 |

Individual results from above.
viability Z-score with O=C(N[C@@]([H])(C/C1=C/NC=2C=CC=CC1=2)C(=O)OC)C=3[S]C=CC=3 is entered as -3.51
viability Z-score with O[C@]1(CCN(CCC1)C=2N=C(C(=CN=2)C=3O/N=C(/C)C=3)C=4OC=CC=4)C5=NC=CN5C is entered as -3.75
viability Z-score with N#C/C2=C(\N)OC=1NN=C(C=1[C@@]2([H])C=3OC(=CC=3)[N+]([O-])=O)C4=CN=CC=C4 is entered as -1.54

Source: the supplement of paper PMC8846439
